Reference: patent US6610747B2, “Phenoxybenzylamine derivatives as SSRIs” (Pfizer Inc., priority 2000, dated 2003)
Some entries share one result that the patent states for a list of compounds.

The chains behind the UniProt entries cited, without tags or fusion partners.
UniProt P31645, whole entry: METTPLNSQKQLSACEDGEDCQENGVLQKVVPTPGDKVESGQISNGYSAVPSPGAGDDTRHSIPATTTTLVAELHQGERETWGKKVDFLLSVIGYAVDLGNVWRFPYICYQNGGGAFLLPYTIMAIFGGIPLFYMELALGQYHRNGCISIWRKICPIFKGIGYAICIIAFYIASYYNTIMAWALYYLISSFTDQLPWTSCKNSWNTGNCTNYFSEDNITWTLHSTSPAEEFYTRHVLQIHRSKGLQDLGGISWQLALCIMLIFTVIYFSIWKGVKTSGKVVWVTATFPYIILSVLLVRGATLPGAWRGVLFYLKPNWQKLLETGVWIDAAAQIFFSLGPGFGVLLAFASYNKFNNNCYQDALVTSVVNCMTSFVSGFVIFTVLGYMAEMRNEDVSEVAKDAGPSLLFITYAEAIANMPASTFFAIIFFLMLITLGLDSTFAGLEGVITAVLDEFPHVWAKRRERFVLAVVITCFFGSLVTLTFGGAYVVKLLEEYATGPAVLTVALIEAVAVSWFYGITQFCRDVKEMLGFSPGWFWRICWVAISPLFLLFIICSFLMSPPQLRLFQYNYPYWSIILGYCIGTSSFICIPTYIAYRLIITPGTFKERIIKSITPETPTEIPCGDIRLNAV

molecular target: T1, human serotonin transporter (hSERT) (Homo sapiens, UniProt P31645); assay: Inhibition of 3H-serotonin uptake in HEK-293 cells stably transfected with the human serotonin transporter (SRI); type: cell-based; settings: HEK-293 cells expressing hSERT; 3H-5HT (50 nM); 5 min incubation; room temperature; read-out: serotonin re-uptake inhibition (SRI) IC50
T1 construct: expressed in transfected cells; host or cells: HEK-293
Procedure: A number of compounds were tested for biological activity by their ability to inhibit the uptake of serotonin by human serotonin transporters as follows.
Human embryonic kidney cells (HEK-293) stably transfected with either the human serotonin transporter (hSERT), noradrenaline transporter (hNET) or dopamine transporter (hDAT) were cultured under standard cell culture techniques (cells were grown at 37° C. and 5% CO2 in DMEM-culture media (supplemented with 10% dialysed foetal calf serum (FCS), 2mM l-glutamine and 250 μg/ml geneticin)). Cells were harvested for the assay to yield a cell suspension of 750,000 cells/ml.
(i) Determination of Inhibitor Potency
All test compounds were dissolved in 100% DMSO and diluted down in assay buffer to give appropriate test concentrations. Assays were carried out in 96-well filter bottom plates. Cells (7500 cells/assay well) were pre-incubated in standard assay buffer containing either test compound, standard inhibitor or compound vehicle (1% DMSO) for 5 minutes. Reactions were started by addition of either ^3H-Serotonin, ^3H-Noradrenaline or ^3H-Dopamine substrates. All reactions were carried out at room temperature in a shaking incubator. Incubation times were 5 minutes for the hSERT and hDAT assays and 15 minutes for the hNET assay. Reactions were terminated by removal of the reaction mixture using a vacuum manifold followed by rapid washing with ice cold assay buffer. The quantity of ^3H-substrate incorporated into the cells was then quantified.
Assay plates were dried in a microwave oven, scintillation fluid added, and radioactivity measured.
(iii) Standard Assay Buffer Composition
Trizma hydrochloride (26 mM)
Note: The pH of the buffer was adjusted to 7.40 with 1M NaOH before addition of CaCl2 and pargyline.
(iv) Summary of Assay Parameters

Row | SMILES | IC50 [nM]
1 | CNCc1cc(CNS(=O)(=O)C(F)(F)F)ccc1Oc1ccc(SC)c(C)c1 [Example 76] | ≤ 100
2 | CSc1ccc(Oc2cc(CNS(C)(=O)=O)ccc2CN(C)C)cc1C [Example 77, N-{4-[(Dimethylamino)methyl]-3-[3-methyl-4-(methylsulfanyl)phenoxy]benzyl}methanesulfonamide] | ≤ 100
3 | CN(C)Cc1cc(C(N)=O)ccc1Oc1ccc2c(c1)CCS2 [Example 80] | ≤ 100
4 | CNC(=O)c1ccc(Oc2ccc3c(c2)CCS3)c(CN(C)C)c1 [Example 81] | ≤ 100
5 | COCCNC(=O)c1ccc(Oc2ccc3c(c2)CCS3)c(CN(C)C)c1 [Example 82] | ≤ 100
6 | CSc1ccc(Oc2ccc(C(N)=O)cc2CN(C)C)cc1F [Example 83] | ≤ 100
7 | CNC(=O)c1ccc(Oc2ccc(SC)c(F)c2)c(CN(C)C)c1 [Example 84] | ≤ 100
8 | COCCNC(=O)c1ccc(Oc2ccc(SC)c(F)c2)c(CN(C)C)c1 [Example 85] | ≤ 100
9 | CSc1ccc(Oc2ccc(C(N)=O)cc2CN(C)C)cc1Cl [Example 86] | ≤ 100
10 | CNC(=O)c1ccc(Oc2ccc(SC)c(Cl)c2)c(CN(C)C)c1 [Example 87] | ≤ 100
11 | CN(C)Cc1cc(C(N)=O)ccc1Oc1ccc2c(c1)OCCS2 [Example 88, 4-(2,3-dihydro-1,4-benzoxathiin-7-yloxy)-3-[(dimethylamino)methyl]benzamide] | ≤ 100
12 | COCCNC(=O)c1ccc(Oc2ccc3c(c2)OCCS3)c(CN(C)C)c1 [Example 89] | ≤ 100
13 | CSc1ccc(Oc2ccc(CO)cc2CN(C)C)cc1Cl [Example 91] | ≤ 100
14 | CN(C)Cc1ccccc1Oc1ccc2c(c1)CCS2 [Example 95] | ≤ 100
15 | CSc1ccc(Oc2ccc(CNS(C)(=O)=O)cc2CN(C)C)cc1F [Example 96] | ≤ 100
16 | CSc1ccc(Oc2ccc(CNS(C)(=O)=O)cc2CN(C)C)cc1C [Example 97] | ≤ 100

same assay, conditions: selectivity hSERT versus both hDAT and hNET uptake assays (HEK-293 cells)

Row | SMILES | fold more potent in the inhibition of serotonin re-uptake than in the inhibition of dopamine re-uptake and noradrenaline re-uptake
17 | CNCc1cc(C#N)ccc1Oc1ccc(SC)c(F)c1 [Example 72] | more than 100 fold
18 | CNCc1cc(CNS(C)(=O)=O)ccc1Oc1ccc(SC)c(F)c1 [Example 73] | more than 100 fold
19 | CNCc1cc(CO)ccc1Oc1ccc(SC)c(C)c1 [Example 74] | more than 100 fold
20 | CNCc1cc(CNS(C)(=O)=O)ccc1Oc1ccc(SC)c(C)c1 [Example 75, N-{3-[(methylamino)methyl]-4-[3-methyl-4-(methylsulfanyl)phenoxy]benzyl}methanesulfonamide] | more than 100 fold
21 | CNCc1cc(C#N)ccc1Oc1ccc(SC)c(C)c1 [Example 78, 3-[(Methylamino)methyl]-4-[3-methyl-4-(methylsulfanyl)phenoxy]benzonitrile] | more than 100 fold
22 | CSc1ccc(Oc2ccc(CO)cc2CN(C)C)cc1F [Example 90, {3-[(dimethylamino)methyl]-4-[3-fluoro-4-(methylsulfanyl)phenoxy]phenyl}-methanol] | more than 100 fold
23 | CSc1ccc(Oc2ccc(C#N)cc2CN(C)C)cc1C [Example 92] | more than 100 fold
24 | CSc1ccc(Oc2ccc(C#N)cc2CN(C)C)cc1F [Example 93] | more than 100 fold
25 | CSc1ccc(Oc2ccccc2CN(C)C)cc1C [Example 94] | more than 100 fold

same assay, conditions: selectivity hSERT versus hDAT or hNET uptake assays (HEK-293 cells)

Row | SMILES | fold more potent in the inhibition of serotonin re-uptake than in the inhibition of dopamine re-uptake or noradrenaline re-uptake
26 | CNC(=O)c1ccc(Oc2ccc3c(c2)CCS3)c(CN(C)C)c1 [Example 81] | more than 10 fold
27 | COCCNC(=O)c1ccc(Oc2ccc3c(c2)CCS3)c(CN(C)C)c1 [Example 82] | more than 10 fold
28 | CSc1ccc(Oc2ccc(CO)cc2CN(C)C)cc1Cl [Example 91] | more than 10 fold
